These are yes or no findings as the source states them, for the method shown. In cells and extracts the contact can be indirect. Binding can be weak; no strength is given.
Target: EFNA1-HA (human) (UniProt P20827)
Assay: co-IP; SiHa cells cotransfected with EFNA1-HA and FLAG-tagged EphA2 wild type or truncated mutants; immunoprecipitation with anti-HA antibodies (forward) and reverse co-IP

Chains of the proteins cited; added tags and fusions are not shown. Lines headed by an entry give the natural chain unless they say otherwise; changes in a name come on top. Residues count along the entry.
UniProt P20827, residues 19-182: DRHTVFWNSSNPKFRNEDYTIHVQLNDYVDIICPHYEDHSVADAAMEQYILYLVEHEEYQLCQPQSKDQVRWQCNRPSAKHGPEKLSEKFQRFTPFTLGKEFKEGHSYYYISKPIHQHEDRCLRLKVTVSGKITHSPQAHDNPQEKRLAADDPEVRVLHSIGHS
UniProt P29317: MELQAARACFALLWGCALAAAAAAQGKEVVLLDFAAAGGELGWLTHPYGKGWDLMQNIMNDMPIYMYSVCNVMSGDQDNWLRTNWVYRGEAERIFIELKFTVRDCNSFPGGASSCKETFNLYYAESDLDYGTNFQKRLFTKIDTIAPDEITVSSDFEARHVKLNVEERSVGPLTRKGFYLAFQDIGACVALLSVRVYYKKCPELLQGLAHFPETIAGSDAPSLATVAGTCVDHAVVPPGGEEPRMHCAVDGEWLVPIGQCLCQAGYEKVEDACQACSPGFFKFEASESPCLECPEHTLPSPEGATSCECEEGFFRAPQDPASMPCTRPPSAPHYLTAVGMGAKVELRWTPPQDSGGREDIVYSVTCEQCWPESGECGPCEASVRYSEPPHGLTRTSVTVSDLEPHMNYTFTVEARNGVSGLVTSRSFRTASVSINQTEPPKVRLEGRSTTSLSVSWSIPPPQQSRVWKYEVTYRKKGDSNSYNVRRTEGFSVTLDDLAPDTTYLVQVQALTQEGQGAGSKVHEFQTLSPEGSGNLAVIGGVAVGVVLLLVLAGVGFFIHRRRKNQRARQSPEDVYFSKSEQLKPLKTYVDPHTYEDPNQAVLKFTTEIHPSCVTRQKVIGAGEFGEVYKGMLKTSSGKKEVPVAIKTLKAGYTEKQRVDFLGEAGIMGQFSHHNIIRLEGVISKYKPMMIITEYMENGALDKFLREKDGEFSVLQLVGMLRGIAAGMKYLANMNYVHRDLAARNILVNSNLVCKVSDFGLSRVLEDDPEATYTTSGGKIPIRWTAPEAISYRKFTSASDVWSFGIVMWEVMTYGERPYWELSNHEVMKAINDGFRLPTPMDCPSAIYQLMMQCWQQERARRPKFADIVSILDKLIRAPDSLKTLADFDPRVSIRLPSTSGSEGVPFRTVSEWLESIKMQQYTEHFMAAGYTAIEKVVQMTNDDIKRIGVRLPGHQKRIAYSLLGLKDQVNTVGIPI

| Substance | binding |
| --- | --- |
| EphA2^ΔLBD (from UniProt P29317) (receptor) | binds |
| EphA2^ΔLBD-KD (from UniProt P29317) (receptor) | binds |
| EphA2^ΔEXT (from UniProt P29317) (receptor) | no binding |
| EphA2^ΔLSEF (from UniProt P29317) (receptor) | binds |
| EphA2^ΔFNIII (from UniProt P29317) (receptor) | no binding |
